These are yes or no findings as the source states them, for the method shown. Some results given as binding are weak or reduced against the parent protein; the word gives no strength.
Molecular target: T1, Carboxy-methylated α-lactalbumin (UniProt P00711)
T1 sequence (chain, carboxy-methylated (residues not stated)): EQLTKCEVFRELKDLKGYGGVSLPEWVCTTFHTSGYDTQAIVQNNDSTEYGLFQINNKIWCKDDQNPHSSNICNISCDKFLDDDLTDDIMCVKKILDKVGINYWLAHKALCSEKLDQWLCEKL
Test: ELISA; substrate-binding enzyme immunoassay: CMLA immobilised on wells of an EIA plate; recombinant Hsp70 100 ng/mL in 20 mM Tris HCl, 20 mM NaCl, 10 mM MgCl2, pH 7.5, with or without BT44 or MKT-077; bound Hsp70 detected with anti-Hsp70 polyclonal antibody; both purified

The chains behind the UniProt entries cited, without tags or fusion partners.
UniProt P0DMV8: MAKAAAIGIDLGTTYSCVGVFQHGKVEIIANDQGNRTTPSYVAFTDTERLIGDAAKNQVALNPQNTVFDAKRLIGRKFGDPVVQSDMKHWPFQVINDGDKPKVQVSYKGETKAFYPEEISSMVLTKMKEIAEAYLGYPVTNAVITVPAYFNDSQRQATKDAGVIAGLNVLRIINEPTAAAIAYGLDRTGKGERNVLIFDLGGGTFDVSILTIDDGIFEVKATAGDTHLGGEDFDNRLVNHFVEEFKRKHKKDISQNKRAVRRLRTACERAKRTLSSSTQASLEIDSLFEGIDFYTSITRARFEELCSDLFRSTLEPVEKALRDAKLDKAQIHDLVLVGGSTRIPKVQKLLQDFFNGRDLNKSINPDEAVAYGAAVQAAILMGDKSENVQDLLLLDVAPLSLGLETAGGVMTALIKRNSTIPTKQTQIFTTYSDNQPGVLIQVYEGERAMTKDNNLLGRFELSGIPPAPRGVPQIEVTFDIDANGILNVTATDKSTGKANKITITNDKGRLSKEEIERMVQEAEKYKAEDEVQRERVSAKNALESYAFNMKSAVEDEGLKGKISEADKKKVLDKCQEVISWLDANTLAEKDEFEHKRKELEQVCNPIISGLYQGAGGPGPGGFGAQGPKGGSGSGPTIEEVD

binding: binds
Substance: Recombinant human Hsp70 (from UniProt P0DMV8 1-641)
